{"source": "PubChem BioAssay AID248", "about": "(DTP/NCI, 2004)", "system": "L1210 leukemia ip in BDF1 mice, survival T/C", "assay": "NCI In Vivo Anticancer Drug Screen. Data for tumor model L1210 Leukemia (intraperitoneal) in B6D2F1 (BDF1) mice", "settings": "T/C endpoint: mean survival time, higher T/C = longer survival", "key": {"[1]": {"settings": "dose: 4.0 mg/kg/injection, schedule: Q01DX Z (oral), vehicle: acid diluted with saline"}, "[2]": {"settings": "dose: 8.0 mg/kg/injection, schedule: Q01DX Z (oral), vehicle: acid diluted with saline"}}, "note": "The list shows only some results of the screen, not a fair sample: it is rich in T/C values a quarter to a half above the control, in often repeated tests (any T/C) and in doses without a T/C. Other doses and runs of a compound stand elsewhere. T/C: endpoint of the treated group in % of that of the vehicle group. Some entries give survivors of the animals treated and no T/C: the source holds a T/C of zero for them, seemingly a mark for toxic or unscored doses. Some survivor counts are full or nearly so, which does not show that the dose was tolerated: the source hardly ever lists a survival T/C far under the control, and the zero likely stands for such cases as well. Counts of survivors are from the toxicity check (mostly the fifth day) where no day follows; animals may have died later. Schedule codes are those of the source, taken here to give the interval after Q, in days (D) or hours (H), and the number of doses after X. Some schedules carry Z or #; the key to these is not given. Some entries were tested several times; their values stand side by side, smallest first. For survival time, the PubChem record calls one and a half times the control and up active, and a quarter to a half above the control has no call in these data; cut-offs in other NCI protocols can differ. Some T/C values carry the count of animals alive at the toxicity check (mostly the fifth day); without a count, all were alive then.", "data": [{"smiles": "NC(Cc1c[nH]c2ccc(N(CCCl)CCCl)cc12)C(=O)O", "note": "(stereo unspecified)", "values": [{"measurement": "T/C", "setting": "dose: 0.01 mg/kg/injection, schedule: Q07DX Z (ip), vehicle: acid diluted with saline", "result": "142 % of control"}, {"measurement": "T/C", "setting": "dose: 0.03 mg/kg/injection, schedule: Q#A X Z (ip), vehicle: acid diluted with saline", "result": "139 % of control"}, {"measurement": "T/C", "setting": "dose: 0.04 mg/kg/injection, schedule: Q01DX Z (ip), vehicle: saline", "result": "133 % of control"}, {"measurement": "T/C", "setting": "dose: 0.06 mg/kg/injection, schedule: Q01DX Z (ip), vehicle: acid diluted with saline", "result": "129 % of control"}, {"measurement": "T/C", "setting": "dose: 0.07 mg/kg/injection, schedule: Q01DX Z (ip), vehicle: saline", "result": "128 % of control"}, {"measurement": "T/C", "setting": "dose: 0.09 mg/kg/injection, schedule: Q01DX009 (ip), vehicle: saline", "result": "129 and 138 % of control"}, {"measurement": "T/C", "setting": "dose: 0.18 mg/kg/injection, schedule: Q01DX009 (ip), vehicle: saline", "result": "132 % of control"}, {"measurement": "T/C", "setting": "dose: 0.18 mg/kg/injection, schedule: Q01DX Z (ip), vehicle: acid diluted with saline", "result": "140 % of control"}, {"measurement": "T/C", "setting": "dose: 0.25 mg/kg/injection, schedule: Q01DX (oral), vehicle: acid diluted with saline", "result": "130 % of control"}, {"measurement": "T/C", "setting": "dose: 0.25 mg/kg/injection, schedule: Q01DX Z (oral), vehicle: acid diluted with saline", "result": "100, 102, 104, 110 % of control"}, {"measurement": "T/C", "setting": "dose: 0.25 mg/kg/injection, schedule: Q#A X Z (oral), vehicle: acid diluted with saline", "result": "143 % of control"}, {"measurement": "T/C", "setting": "dose: 0.37 mg/kg/injection, schedule: Q01DX009 (ip), vehicle: saline", "result": "135 and 136 % of control"}, {"measurement": "T/C", "setting": "dose: 0.5 mg/kg/injection, schedule: Q01DX (oral), vehicle: acid diluted with saline", "result": "144 % of control"}, {"measurement": "T/C", "setting": "dose: 0.5 mg/kg/injection, schedule: Q01DX Z (oral), vehicle: acid diluted with saline", "result": "104, 110, 115, 117, 130 % of control"}, {"measurement": "T/C", "setting": "dose: 0.5 mg/kg/injection, schedule: Q07DX003 (ip), vehicle: acid diluted with saline", "result": "148 % of control"}, {"measurement": "T/C", "setting": "dose: 0.5 mg/kg/injection, schedule: Q07DX Z (ip), vehicle: acid diluted with saline", "result": "138 % of control"}, {"measurement": "T/C", "setting": "dose: 0.54 mg/kg/injection, schedule: Q01DX Z (sc), vehicle: acid diluted with saline", "result": "142 % of control"}, {"measurement": "T/C", "setting": "dose: 0.75 mg/kg/injection, schedule: Q01DX009 (ip), vehicle: saline", "result": "138 % of control"}, {"measurement": "T/C", "setting": "dose: 0.75 mg/kg/injection, schedule: Q03DX (oral), vehicle: acid diluted with saline", "result": "125 % of control"}, {"measurement": "survivor count", "setting": "dose: 0.8 mg/kg/injection, schedule: Q#A X Z (ip), vehicle: acid diluted with saline", "result": "0 of 6"}, {"measurement": "survivor count", "setting": "dose: 0.87 mg/kg/injection, schedule: Q01DX Z (ip), vehicle: saline", "result": "6 of 6"}, {"measurement": "T/C", "setting": "dose: 0.93 mg/kg/injection, schedule: Q01DX001 (ip), vehicle: carboxymethylcellulose (CMC)", "result": "128 % of control"}, {"measurement": "T/C", "setting": "dose: 1.0 mg/kg/injection, schedule: Q01DX Z (oral), vehicle: acid diluted with saline", "result": "120, 125, 135, 140, 144 % of control"}, {"measurement": "survivor count", "setting": "dose: 1.0 mg/kg/injection, schedule: Q#A X Z (oral), vehicle: acid diluted with saline", "result": "5 of 6"}, {"measurement": "survivor count", "setting": "dose: 1.3 mg/kg/injection, schedule: Q01DX Z (ip), vehicle: saline", "result": "6 of 6"}, {"measurement": "survivor count", "setting": "dose: 1.6 mg/kg/injection, schedule: Q01DX Z (ip), vehicle: acid diluted with saline", "result": "4 of 6"}, {"measurement": "T/C", "setting": "dose: 1.87 mg/kg/injection, schedule: Q01DX001 (ip), vehicle: carboxymethylcellulose (CMC)", "result": "146 % of control"}, {"measurement": "survivor count", "setting": "dose: 1.9 mg/kg/injection, schedule: Q01DX Z (ip), vehicle: saline", "result": "0 of 6"}, {"measurement": "T/C", "setting": "dose: 2.0 mg/kg/injection, schedule: Q01DX Z (oral), vehicle: acid diluted with saline", "result": "114, 122, 133, 135, 143, 148, 151 % of control"}, {"measurement": "T/C", "setting": "dose: 2.0 mg/kg/injection, schedule: Q03DX Z (oral), vehicle: acid diluted with saline", "result": "126 % of control"}, {"measurement": "survivor count", "setting": "dose: 2.0 mg/kg/injection, schedule: Q#A X Z (oral), vehicle: acid diluted with saline", "result": "3 of 6"}, {"measurement": "T/C", "setting": "dose: 2.4 mg/kg/injection, schedule: Q01DX Z (oral), vehicle: saline", "result": "135 % of control"}, {"measurement": "survivor count", "setting": "dose: 2.9 mg/kg/injection, schedule: Q01DX Z (ip), vehicle: saline", "result": "0 of 6"}, {"measurement": "T/C", "setting": "dose: 3.0 mg/kg/injection, schedule: Q03DX (oral), vehicle: acid diluted with saline", "result": "143 % of control"}, {"measurement": "T/C", "setting": "dose: 3.5 mg/kg/injection, schedule: Q07DX Z (oral), vehicle: acid diluted with saline", "result": "125 and 138 % of control"}, {"measurement": "T/C", "setting": "[1]", "result": "120, 130, 157, 162 % of control"}, {"measurement": "survivor count", "setting": "[1]", "result": "6 of 6"}, {"measurement": "T/C", "setting": "dose: 4.0 mg/kg/injection, schedule: Q03DX Z (oral), vehicle: acid diluted with saline", "result": "133 % of control [5 of 6 alive]"}, {"measurement": "survivor count", "setting": "dose: 4.0 mg/kg/injection, schedule: Q#A X Z (oral), vehicle: acid diluted with saline", "result": "2 of 6"}, {"measurement": "survivor count", "setting": "dose: 4.8 mg/kg/injection, schedule: Q01DX Z (sc), vehicle: acid diluted with saline", "result": "2 of 6"}, {"measurement": "T/C", "setting": "dose: 6.0 mg/kg/injection, schedule: Q03DX (oral), vehicle: acid diluted with saline", "result": "127 % of control"}, {"measurement": "T/C", "setting": "dose: 7.0 mg/kg/injection, schedule: Q07DX Z (oral), vehicle: acid diluted with saline", "result": "143 % of control"}, {"measurement": "T/C", "setting": "[2]", "result": "117 and 158 % of control"}, {"measurement": "survivor count", "setting": "[2]", "result": "2 of 6 and 5 of 6"}, {"measurement": "T/C", "setting": "dose: 14.0 mg/kg/injection, schedule: Q07DX (oral), vehicle: acid diluted with saline", "result": "127 % of control"}, {"measurement": "survivor count", "setting": "dose: 15.0 mg/kg/injection, schedule: Q01DX Z (sc), vehicle: acid diluted with saline", "result": "1 of 6"}, {"measurement": "survivor count", "setting": "dose: 16.0 mg/kg/injection, schedule: Q01DX Z (oral), vehicle: acid diluted with saline", "result": "3 of 6 and 6 of 6"}, {"measurement": "survivor count", "setting": "dose: 20.0 mg/kg/injection, schedule: Q01DX001 (ip), vehicle: saline", "result": "5 of 6"}, {"measurement": "survivor count", "setting": "dose: 24.0 mg/kg/injection, schedule: Q03DX (oral), vehicle: acid diluted with saline", "result": "6 of 6"}, {"measurement": "survivor count", "setting": "dose: 28.0 mg/kg/injection, schedule: Q07DX Z (oral), vehicle: acid diluted with saline", "result": "6 of 6"}, {"measurement": "survivor count", "setting": "dose: 40.0 mg/kg/injection, schedule: Q01DX001 (ip), vehicle: saline", "result": "3 of 6"}, {"measurement": "survivor count", "setting": "dose: 45.0 mg/kg/injection, schedule: Q01DX Z (sc), vehicle: acid diluted with saline", "result": "0 of 6"}, {"measurement": "survivor count", "setting": "dose: 80.0 mg/kg/injection, schedule: Q01DX001 (ip), vehicle: saline", "result": "0 of 6"}, {"measurement": "survivor count", "setting": "dose: 112.0 mg/kg/injection, schedule: Q01DX001 (oral), vehicle: acid diluted with saline", "result": "1 of 6"}, {"measurement": "survivor count", "setting": "dose: 160.0 mg/kg/injection, schedule: Q01DX001 (oral), vehicle: saline", "result": "1 of 6"}, {"measurement": "survivor count", "setting": "dose: 168.0 mg/kg/injection, schedule: Q01DX001 (oral), vehicle: acid diluted with saline", "result": "2 of 6"}, {"measurement": "survivor count", "setting": "dose: 204.0 mg/kg/injection, schedule: Q01DX001 (oral), vehicle: acid diluted with saline", "result": "4 of 6"}, {"measurement": "survivor count", "setting": "dose: 320.0 mg/kg/injection, schedule: Q01DX001 (oral), vehicle: saline", "result": "2 of 6"}, {"measurement": "survivor count", "setting": "dose: 363.0 mg/kg/injection, schedule: Q01DX 1 (oral), vehicle: acid diluted with saline", "result": "6 of 6"}, {"measurement": "survivor count", "setting": "dose: 484.0 mg/kg/injection, schedule: Q01DX 1 (oral), vehicle: acid diluted with saline", "result": "6 of 6"}, {"measurement": "T/C", "setting": "dose: 75.0 micrograms/kg/injection, schedule: Q01DX Z (ip), vehicle: saline", "result": "127 % of control"}, {"measurement": "T/C", "setting": "dose: 90.0 micrograms/kg/injection, schedule: Q01DX009 (ip), vehicle: saline", "result": "125 % of control"}, {"measurement": "T/C", "setting": "dose: 113.0 micrograms/kg/injection, schedule: Q01DX Z (ip), vehicle: saline", "result": "134 % of control"}, {"measurement": "T/C", "setting": "dose: 170.0 micrograms/kg/injection, schedule: Q01DX Z (ip), vehicle: saline", "result": "132 % of control"}, {"measurement": "T/C", "setting": "dose: 180.0 micrograms/kg/injection, schedule: Q01DX009 (ip), vehicle: saline", "result": "131 % of control"}, {"measurement": "T/C", "setting": "dose: 260.0 micrograms/kg/injection, schedule: Q01DX Z (ip), vehicle: saline", "result": "138 % of control"}, {"measurement": "T/C", "setting": "dose: 375.0 micrograms/kg/injection, schedule: Q01DX009 (ip), vehicle: saline", "result": "143 % of control"}]}, {"smiles": "Cc1noc2c1CCCC2", "values": [{"measurement": "survivor count", "setting": "dose: 400.0 mg/kg/injection, schedule: Q04DX003 (ip), vehicle: carboxymethylcellulose (CMC)", "result": "1 of 6"}]}, {"smiles": "O=C1c2cccc3cccc(c23)C(=O)N1NCCO", "values": [{"measurement": "survivor count", "setting": "dose: 400.0 mg/kg/injection, schedule: Q01DX009 (ip), vehicle: Klucel (hydroxypropylcellulose) (HPC)", "result": "1 of 6"}]}, {"smiles": "Cc1ccc(C)c(NC(=O)NCc2ccc(Cl)cc2)c1", "values": [{"measurement": "survivor count", "setting": "dose: 200.0 mg/kg/injection, schedule: Q04DX003 (ip), vehicle: saline with Tween-80", "result": "6 of 6"}]}, {"smiles": "NNCC(F)(F)C(F)(F)C(F)(F)C(F)(F)C(F)(F)C(F)(F)C(F)(F)C(F)F", "values": [{"measurement": "survivor count", "setting": "dose: 400.0 mg/kg/injection, schedule: Q01DX009 (ip), vehicle: DMSO", "result": "4 of 6"}]}]}
